# Experimental data from the supplement of paper PMC6143611.
# Where a name gives a salt, the structure may show the parent alone. ± gives the uncertainty stated by the source. This is one part of the list. Baselines shift from plate to plate; read single values as rough.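 A heat-shock-induced fluorescent stripe was set in larval rod outer segments at 6 dpf. Shedding distance ran from stripe to outer segment tip, measured by confocal stacks in about three fish per compound. Controls: 0.2% DMSO vehicle. Flagged compounds showed ≥20% change from same-week control, p < 0.001 (Dunnett test on mixed-effects models).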
# Assays:
# [1] = system: Danio rerio larva rod photoreceptor outer segment; test: rod outer segment growth distance Dg, difference from same-week DMSO control mean; higher = more outer segment growth; details: 20 µM; treatment time: 4 days (6-10 dpf)
# [2] = system: Danio rerio larva rod photoreceptor outer segment; test: rod outer segment shedding distance Ds, difference from same-week DMSO control mean; higher = less outer segment shedding; details: 20 µM; treatment time: 4 days (6-10 dpf)
SMILES,rod outer segment growth distance Dg [1],rod outer segment shedding distance Ds [2]
CCCCOc1ccc(CC(=O)NO)cc1 [Bufexamac],1.01 ± 0.19 um,0.37 ± 0.17 um
COc1cc(Nc2ncc(F)c(Nc3ccc4c(n3)NC(=O)C(C)(C)O4)n2)cc(OC)c1OC,-0.26 ± 0.27 um,-0.19 ± 0.23 um
CCOc1ccc(NC(C)=O)cc1 [Phenacetin],0.97 ± 0.29 um,-0.63 ± 0.16 um
COC(=O)c1ccc2c(C(=Nc3ccc(N(C)C(=O)CN4CCN(C)CC4)cc3)c3ccccc3)c(O)[nH]c2c1 [Nintedanib (BIBF 1120)],-0.43 ± 0.29 um,-1.13 ± 0.34 um
CCCCC1=NC2(CCCC2)C(=O)N1Cc1ccc(-c2ccccc2-c2nnn[nH]2)cc1 [Irbesartan],-1.61 ± 0.23 um,0.59 ± 0.17 um
COc1ccc([C@@H]2CC(=O)c3c(O)cc(O[C@@H]4O[C@H](CO[C@@H]5O[C@@H](C)[C@H](O)[C@@H](O)[C@H]5O)[C@@H](O)[C@H](O)[C@H]4O)cc3O2)cc1O [Hesperidin],-0.53 ± 0.34 um,0.37 ± 0.39 um
O=C(O)C(Cc1c[nH]c2ccccc12)N1C(=O)c2ccccc2C1=O (configuration not stated),0 ± 0.16 um,0.08 ± 0.14 um
CNC(=O)c1ccccc1Sc1ccc2c(/C=C/c3ccccn3)n[nH]c2c1 [Axitinib],-1.2 ± 0.25 um,-1.74 ± 0.27 um
CC(C)N(CCCNC(=O)Nc1ccc(C(C)(C)C)cc1)C[C@H]1O[C@@H](n2cc(Br)c3c(N)ncnc32)[C@H](O)[C@@H]1O,-0.7 ± 0.22 um,-0.46 ± 0.15 um
CCCC(=O)OCOC(=O)C1=C(C)NC(C)=C(C(=O)OC)C1c1cccc(Cl)c1Cl (configuration not stated) [Clevidipine Butyrate],-0.14 ± 0.23 um,-0.02 ± 0.31 um
COc1cc(C2Oc3cc([C@H]4Oc5cc(O)cc(O)c5C(=O)[C@@H]4O)ccc3OC2CO)ccc1O (some centres not stated) [Silibinin],0.27 ± 0.23 um,-0.34 ± 0.26 um
CN[C@@H]1[C@H](O)[C@H](NC)[C@H]2O[C@@]3(O)C(=O)C[C@@H](C)O[C@H]3O[C@@H]2[C@H]1O [Spectinomycin HCl],-0.07 ± 0.22 um,-0.03 ± 0.33 um
N=C(N)NC(=N)N1CCOCC1 [Moroxydine HCl],0.33 ± 0.22 um,0.53 ± 0.28 um
CC(C)(C)[N+]([O-])=Cc1ccc(S(=O)(=O)O)cc1S(=O)(=O)O,1.11 ± 0.23 um,0.6 ± 0.2 um
Nc1nc(Nc2ccc(S(N)(=O)=O)cc2)nn1C(=O)c1c(F)cccc1F,-0.68 ± 0.21 um,0.12 ± 0.26 um
"Cc1c(C(=O)Nc2ccc(N3C[C@@H](C)O[C@@H](C)C3)nc2)cccc1-c1ccc(OC(F)(F)F)cc1 [LDE225 (NVP-LDE225,Erismodegib)]",-1.68 ± 0.62 um,-0.42 ± 0.65 um

# Part of the list above, tab-delimited.
SMILES	rod outer segment growth distance Dg [1]	rod outer segment shedding distance Ds [2]
O=C(O)C(Cc1c[nH]c2ccccc12)N1C(=O)c2ccccc2C1=O (configuration not stated)	0 ± 0.16 um	0.08 ± 0.14 um
CNC(=O)c1ccccc1Sc1ccc2c(/C=C/c3ccccn3)n[nH]c2c1 [Axitinib]	-1.2 ± 0.25 um	-1.74 ± 0.27 um

# Later entries.

SMILES,rod outer segment growth distance Dg [1],rod outer segment shedding distance Ds [2]
COc1cc(Nc2ncc3c(n2)-c2ccc(Cl)cc2C(c2c(F)cccc2OC)=NC3)ccc1C(=O)O [Alisertib (MLN8237)],0.14 ± 0.19 um,-1.22 ± 0.2 um
CCNC(=O)CCC/C=C\C[C@@H]1[C@@H](/C=C/[C@@H](O)CCc2ccccc2)[C@H](O)C[C@@H]1O [Bimatoprost],0.82 ± 0.37 um,-0.85 ± 0.38 um
CC(C)C[C@H](NC(=O)[C@H](CCc1ccccc1)NC(=O)CN1CCOCC1)C(=O)N[C@@H](Cc1ccccc1)C(=O)N[C@@H](CC(C)C)C(=O)[C@@]1(C)CO1 [Carfilzomib (PR-171)],0.25 ± 0.16 um,0.03 ± 0.13 um
O=c1cc(N2CCOCC2)oc2c1ccc1ccccc12,-0.25 ± 0.19 um,-0.15 ± 0.12 um
CN1CCN(c2nc(C3=C(c4c[nH]c5ccccc45)C(=O)NC3=O)c3ccccc3n2)CC1 [Sotrastaurin],-0.8 ± 0.17 um,-0.21 ± 0.14 um
CC(C)(C)c1nc(-c2cccc(NS(=O)(=O)c3c(F)cccc3F)c2F)c(-c2ccnc(N)n2)s1,-1.03 ± 0.17 um,-0.1 ± 0.13 um
CC1(C)CNc2cc(NC(=O)c3cccnc3NCc3ccncc3)ccc21 [Motesanib Diphosphate (AMG-706)],-0.92 ± 0.2 um,-0.31 ± 0.22 um
Cc1cnc(Nc2ccc(OCCN3CCCC3)cc2)nc1Nc1cccc(S(=O)(=O)NC(C)(C)C)c1,-1.2 ± 0.15 um,-0.52 ± 0.1 um
CCOC(=O)N1c2ccc(C(F)(F)F)cc2[C@@H](N(Cc2cc(C(F)(F)F)cc(C(F)(F)F)c2)C(=O)OC)C[C@H]1CC [Torcetrapib],-0.44 ± 0.17 um,0.1 ± 0.13 um
CN[C@@H]1[C@H](O[C@H]2[C@H](O[C@H]3[C@H](O)[C@@H](O)[C@H](N=C(N)N)[C@@H](O)[C@@H]3N=C(N)N)O[C@@H](C)[C@]2(O)C=O)O[C@@H](CO)[C@H](O)[C@H]1O [Streptomycin sulfate],-0.03 ± 0.27 um,0.07 ± 0.14 um
Nc1nc2c(ncn2COC(CO)CO)c(=O)[nH]1 [Ganciclovir],0.67 ± 0.17 um,1.03 ± 0.25 um
COc1ccc(F)c(F)c1C(=O)c1cnc(NC2CCN(S(C)(=O)=O)CC2)nc1N,-1.49 ± 0.26 um,0.16 ± 0.18 um
CCc1c(O)cc(O)c(C(=O)c2ccc(OCCN3CCOCC3)c(OC)c2)c1CC(=O)N(CCOC)CCOC,0.57 ± 0.14 um,0.17 ± 0.14 um
OCCn1cc(-c2cnc3nnn(Cc4ccc5ncccc5c4)c3n2)cn1,-0.98 ± 0.17 um,0.1 ± 0.21 um
COc1cccc2c1C(=O)c1c(O)c3c(c(O)c1C2=O)C[C@@](O)(C(C)=O)C[C@@H]3O[C@H]1C[C@H](N)[C@H](O)[C@H](C)O1 [Daunorubicin HCl],0.69 ± 0.2 um,-0.28 ± 0.18 um
